Source: publication PMC9029100
No constants are given. Whether binding was seen depends on the method and setting. In cells and extracts the contact can be indirect. These calls come from enrichment with a bait or labelling near it, and not all partners need be listed. A no says only that the protein was not detected with the bait. Where a sequence is shown, tags or fusion partners need not be part of it.

Molecular target: T1, GFP-labeled Atg24 protein (Atg24-GFP) (Aspergillus fumigatus) (UniProt Q4WQI6)
T1 sequence: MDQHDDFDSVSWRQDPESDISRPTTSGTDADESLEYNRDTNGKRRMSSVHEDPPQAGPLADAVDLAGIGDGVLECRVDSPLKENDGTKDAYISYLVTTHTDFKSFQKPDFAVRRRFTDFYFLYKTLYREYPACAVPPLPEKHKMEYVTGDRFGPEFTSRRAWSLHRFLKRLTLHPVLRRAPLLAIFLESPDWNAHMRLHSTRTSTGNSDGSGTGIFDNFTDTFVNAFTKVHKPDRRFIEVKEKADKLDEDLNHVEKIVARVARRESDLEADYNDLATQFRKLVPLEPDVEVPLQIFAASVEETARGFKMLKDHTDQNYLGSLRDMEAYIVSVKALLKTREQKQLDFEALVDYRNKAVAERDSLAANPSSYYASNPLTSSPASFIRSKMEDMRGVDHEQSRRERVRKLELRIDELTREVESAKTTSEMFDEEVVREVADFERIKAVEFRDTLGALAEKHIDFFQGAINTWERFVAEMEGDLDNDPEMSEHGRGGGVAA
Test: affinity purification with mass spectrometry; GFP-Trap affinity purification of Atg24-GFP from crude cellular extracts of triplicate A. fumigatus cultures, then quantitative LC-MS/MS; control strain expressing free GFP; significant if p < 0.05 and >2-fold over the GFP control

Molecule: Atg20, autophagy sorting nexin protein
- binding: binds

B1: Atg8 (protein, UniProt Q4WJ27 1-118)
chain: MRSKFKDEHPFEKRKAEAERIRQKYADRIPVICEKVEKSDIATIDKKKYLVPADLTVGQFVYVIRKRIKLSPEKAIFIFVDEVLPPTAALMSSIYEEHKDEDGFLYITYSGENTFGDC
- binding: no binding
